{"source": "patent US10309973", "about": "(dated 2019)", "key": {"[1]": {"assay": "Fmoc solid-phase peptide synthesis; Rink Amide ChemMatrix; PyBOP/HOBt/DIEA; HCTU/NMM; HBTU/HOBt/DIEA", "conditions": "whole synthesis, scale of the general procedure 0.0633 mmol"}, "[2]": {"assay": "Fmoc solid-phase peptide synthesis; chlorotrityl resin preloaded with Cys(Trt); PyBOP/HOBt/DIEA; HCTU/NMM; HBTU/HOBt/DIEA", "conditions": "whole synthesis, scale of the general procedure 0.0633 mmol"}, "[3]": {"assay": "Fmoc solid-phase peptide synthesis; 2-chlorotrityl-Cys(S-Trt) preloaded resin; PyBOP/HOBt/DIEA; HCTU/NMM; HBTU/HOBt/DIEA", "conditions": "whole synthesis, scale of the general procedure 0.0633 mmol"}, "[4]": {"assay": "general procedure: Fmoc solid-phase peptide synthesis; Fmoc-Cys(Trt)-Rink resin; 2-chlorotrityl-Cys(S-Trt) preloaded resin; Rink Amide ChemMatrix; PyBOP/HOBt/DIEA; HCTU/NMM; HBTU/HOBt/DIEA", "conditions": "214 nm"}}, "data": [{"substance": "Ac-Ala-Cys-Asn-Phe-Asn-Asp-Val-Thr-Thr-Arg-Leu-Arg-Glu-Asn-Glu-Leu-Thr-Tyr-Tyr-Cys-Ala-Ala-Lys-NH2 (SEQ ID NO: 11) (Cys^2-Cys^20-disulfide)", "values": [{"measurement": "final purity (method not given)", "setting": "[1]", "result": ">93", "unit": "%"}]}, {"substance": "Ac-{Ala^39,45,LyS^38(N^ε-ivDde),Cys^50}hCD59(37-50)", "values": [{"measurement": "final HPLC purity", "setting": "[2]", "result": ">95", "unit": "%"}]}, {"substance": "Ac-Asn-Lys-Ala-Trp-Lys[N^ε-(1-deoxy-D-glucitol-1-yl)]-Phe-Glu-His-Ala-Asn-Phe-Asn-Asp-Cys-OH", "values": [{"measurement": "final purity (method not given)", "setting": "[3]", "result": ">95", "unit": "%"}, {"measurement": "crude HPLC purity", "setting": "[4]; late stage modification step", "result": 70, "unit": "%"}, {"measurement": "crude HPLC purity", "setting": "[4]; whole synthesis, scale of the general procedure 0.0633 mmol", "result": 58, "unit": "%"}]}]}
